This is one part of the list.
Columns and labels:
Assay in all cases: glycan array binding signal (z-score within array); higher = stronger binding
Details in all cases: glycan notation: IUPAC condensed, linker removed
[1] = target: Neu5Ac(a2-8)Neu5Ac
Procedure, shortened: (§1)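 Columns mapping to the same glycan were averaged after glycan names were converted to IUPAC-condensed notation. The data come from 3228 arrays in the Consortium for Functional Glycomics database, limited to those with an available protein sequence. Binding is reported as a within-array Z-score averaged across arrays of one protein sequence and across linkers.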

[2] = target: Neu5Ac(a2-8)Neu5Ac(a2-3)Gal(b1-3)GalNAc(b1-4)[Neu5Ac(a2-3)]Gal(b1-4)Glc
Procedure, shortened: as §1

[3] = target: Neu5Ac(a2-8)Neu5Ac(a2-3)Gal(b1-3)GalNAc(b1-4)[Neu5Ac(a2-8)Neu5Ac(a2-3)]Gal(b1-4)Glc
Procedure, shortened: as §1

[4] = target: Neu5Ac(a2-8)Neu5Ac(a2-3)Gal(b1-4)Glc
Procedure, shortened: as §1

[5] = target: Neu5Ac(a2-8)Neu5Ac(a2-3)Gal(b1-4)GlcNAc
Procedure, shortened: as §1

[6] = target: Neu5Ac(a2-8)Neu5Ac(a2-3)[Gal(b1-3)GalNAc(b1-4)]Gal(b1-4)Glc
Procedure, shortened: as §1

[7] = target: Neu5Ac(a2-8)Neu5Ac(a2-3)[GalNAc(b1-4)]Gal(b1-4)Glc
Procedure, shortened: as §1

[8] = target: Neu5Ac(a2-8)Neu5Ac(a2-8)Neu5Ac
Procedure, shortened: as §1

[9] = target: Neu5Ac(a2-8)Neu5Ac(a2-8)Neu5Ac(a2-3)Gal(b1-4)Glc
Procedure, shortened: as §1

[10] = target: Neu5Ac(a2-8)Neu5Ac(a2-8)Neu5Ac(a2-3)[Gal(b1-3)GalNAc(b1-4)]Gal(b1-4)Glc
Procedure, shortened: as §1

[11] = target: Neu5Ac(a2-8)Neu5Ac(a2-8)Neu5Ac(a2-3)[GalNAc(b1-4)]Gal(b1-4)Glc
Procedure, shortened: as §1

[12] = target: Neu5Ac(a2-8)Neu5Ac(a2-8)Neu5Ac(a2-8)Neu5Ac(a2-3)[GalNAc(b1-4)]Gal(b1-4)Glc
Procedure, shortened: as §1

[13] = target: Neu5Ac(a2-8)Neu5Gc(a2-3)Gal(b1-4)GlcNAc
Procedure, shortened: as §1

[14] = target: Neu5Ac(b2-6)Gal(b1-4)GlcNAc
Procedure, shortened: as §1

[15] = target: Neu5Ac(b2-6)GalNAc
Procedure, shortened: as §1

[16] = target: Neu5Ac9Ac(a2-3)Gal(b1-4)GlcNAc
Procedure, shortened: as §1

[17] = target: Neu5Ac9Ac(a2-6)Gal(b1-4)GlcNAc
Procedure, shortened: as §1

[18] = target: Neu5Gc(a2-3)Gal(b1-3)GlcNAc
Procedure, shortened: as §1

[19] = target: Neu5Gc(a2-3)Gal(b1-3)[Fuc(a1-4)]GlcNAc
Procedure, shortened: as §1

[20] = target: Neu5Gc(a2-3)Gal(b1-4)Glc
Procedure, shortened: as §1

[21] = target: Neu5Gc(a2-3)Gal(b1-4)GlcNAc
Procedure, shortened: as §1

[22] = target: Neu5Gc(a2-3)Gal(b1-4)GlcNAc(b1-3)Gal(b1-4)GlcNAc(b1-2)Man(a1-3)[Neu5Gc(a2-3)Gal(b1-4)GlcNAc(b1-3)Gal(b1-4)GlcNAc(b1-2)Man(a1-6)]Man(b1-4)GlcNAc(b1-4)GlcNAc
Procedure, shortened: as §1

[23] = target: Neu5Gc(a2-3)Gal(b1-4)[Fuc(a1-3)]GlcNAc
Procedure, shortened: as §1

[24] = target: Neu5Gc(a2-6)Gal(b1-4)GlcNAc
Procedure, shortened: as §1

[25] = target: Neu5Gc(a2-6)GalNAc
Procedure, shortened: as §1

[26] = target: Neu5Gc(a2-8)Neu5Ac(a2-3)Gal(b1-4)GlcNAc
Procedure, shortened: as §1

[27] = target: Neu5Gc(a2-8)Neu5Gc(a2-3)Gal(b1-4)GlcNAc
Procedure, shortened: as §1

[28] = target: Neu5Gc(a2-8)Neu5Gc(a2-3)Gal(b1-4)GlcNAc(b1-3)Gal(b1-4)GlcNAc
Procedure, shortened: as §1

[29] = target: Neu5Gc(a2-8)Neu5Gc(a2-6)Gal(b1-4)GlcNAc
Procedure, shortened: as §1

[30] = target: Neu5Gc(b2-6)Gal(b1-4)GlcNAc
Procedure, shortened: as §1

B1: Blon2355mut (Bifidobacterium longum) (protein)
chain: MVQEPTLEWHVIPEPTNVEPLVGTCSLPLSGTVVEQRGADDAEAVFARQLVDDIKRVCGGRWQVASGEVQREVTLRTSPSLDDWSYVLEVSPDGVVITGSGFEGVRDGVQTLRQIIRQIGLTIPCMVIRDRPAFSTRGYYLDVTRGRVPSMAWLKSWVDRLCFYKYNQFQLYIEHTFQFNGLSEVWRGADPLTSSDILELDSYCAARGIELVPSVSTFGHHYTALRTRQLRDLGEFPEDADRPFSLIERMTHHTLNITDERSYEFSTSLIDELMPLFRSRKFNICANETFDLGKGRSKQESAKRGVGAMYADFVERLCRHVDDRGHDVMVWADVALEHPEIIDTLPKNITWLNWQYEPNVDDGTTAALADAGATQMVCPAVWCWNALIPRIDDAWNNITRMARHGRAHDVSGMLVTDWGDFGHVNDPRMSVPGMIFGAQQSWNPDAELSEVDMLSRISTIEYGDHTGSVVGALRGASAKGGFSWSDLVTYLELDDGRGGCNTEIVRVMGCLEAYRNDLPQSGQARLADARVSMLRTLRDSILAGRELNGKLDDAAKDITQLLRVAGDPSSAAVWSLAIDGQRLLNRVGLALLAAHGVVRQDEAGIDAAKLADELECWTEQYSRLWHEVSRQSELARIQHVVWRAADVLRSI
For B1, the “glycan array binding signal (z-score)” value [1] was 0.085, the “glycan array binding signal (z-score)” value [2] was 0.706 and the “glycan array binding signal (z-score)” value [3] was 1.09. The “glycan array binding signal (z-score)” value [4] was -1.14, the “glycan array binding signal (z-score)” value [5] was -0.342 and the “glycan array binding signal (z-score)” value [6] was -1.1. The “glycan array binding signal (z-score)” value [7] was 2.53, the “glycan array binding signal (z-score)” value [8] was -0.1 and the “glycan array binding signal (z-score)” value [9] was -0.733. For the same binder, the “glycan array binding signal (z-score)” value [10] was 0.635, the “glycan array binding signal (z-score)” value [11] was -0.7 and the “glycan array binding signal (z-score)” value [12] was -0.076. The “glycan array binding signal (z-score)” value [13] was -0.455, the “glycan array binding signal (z-score)” value [14] was -0.652 and the “glycan array binding signal (z-score)” value [15] was -1.2. For the same binder, the “glycan array binding signal (z-score)” value [16] was -0.722, the “glycan array binding signal (z-score)” value [17] was 3.4 and the “glycan array binding signal (z-score)” value [18] was -0.793. The “glycan array binding signal (z-score)” value [19] was -0.061, the “glycan array binding signal (z-score)” value [20] was -0.458 and the “glycan array binding signal (z-score)” value [21] was -0.138. The “glycan array binding signal (z-score)” value [22] was 0.496, the “glycan array binding signal (z-score)” value [23] was -0.951 and the “glycan array binding signal (z-score)” value [24] was -0.025. The “glycan array binding signal (z-score)” value [25] was -0.59, the “glycan array binding signal (z-score)” value [26] was -0.298 and the “glycan array binding signal (z-score)” value [27] was -0.974. For the same binder, the “glycan array binding signal (z-score)” value [28] was -0.744, the “glycan array binding signal (z-score)” value [29] was -0.316 and the “glycan array binding signal (z-score)” value [30] was -0.829.
